Some of the results follow.

Protein sequences, listed by entry. Tags and fused reporters are not part of them.
UniProt Q0JBA9, entry or part of it: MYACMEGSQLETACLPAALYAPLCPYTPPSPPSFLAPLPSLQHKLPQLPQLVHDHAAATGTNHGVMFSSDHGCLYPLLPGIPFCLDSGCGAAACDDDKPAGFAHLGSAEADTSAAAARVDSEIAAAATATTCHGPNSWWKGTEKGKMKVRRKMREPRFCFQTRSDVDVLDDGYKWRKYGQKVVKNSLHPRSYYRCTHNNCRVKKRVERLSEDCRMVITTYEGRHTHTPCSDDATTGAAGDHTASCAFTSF

This assay addresses OsWRKY34 (Oryza sativa, UniProt Q0JBA9 1-250). Nature of the assay: protein-binding microarray (RPBM); PBS, 2% BSA, 51.3 ng/ul salmon testes DNA, 50 uM zinc acetate, 200 nM TF, 25 C, 1 h; high values mean tight binding. To be noted: protein: recombinant; tags: N-terminal polyhistidine and DsRed monomer fusion (pET32a); label: CyDye5-dUTP incorporated in the synthesized complementary strand; 3' TTTTT single-stranded linker to array surface; dsDNA, one strand shown. A digest of the protocol:
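For the binding signal, per-feature fluorescence intensity was read in arbitrary units on an Axon 4000B scanner. Before scanning, a 2% BSA-blocked custom Agilent array made double-stranded with Cy5-dUTP was washed after 1 h at 25 °C with 200 nM protein and 50 µM zinc acetate. The proteins were Ni–NTA-purified transcription factors with N-terminal polyhistidine and DsRed fusions, expressed in E. coli BL21-CodonPlus.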
On to “GTGTGCTTGACTAGGTTGCCGTTGATTTGTGTTTTGACTTCGGAGTCACCTAGTGCAG”, for which the binding signal was 10000 fluorescence intensity (a.u.). With “GTCTGCGAGGTCAGCTCACCTTGAAAATGTTAGGGTTTTTCGGAGTCACCTAGTGCAG” the figure was 8170 fluorescence intensity (a.u.).

As for “TCTTTTGTTTTCCTCTTTCTTCACCCTTGCGCTGCCGTTCCGGAGTCACCTAGTGCAG”, the binding signal is 12100 fluorescence intensity (a.u.). With “ATGGCGGAGCTCTCGTTCCTGTTATTCTTGCATGCCAAGTCGGAGTCACCTAGTGCAG” the figure was 9180 fluorescence intensity (a.u.); with “GCGAGAGTGGTGGTGGTGGTGGCCTCGTAGTGGAGAGCGACGGAGTCACCTAGTGCAG”, 9230 fluorescence intensity (a.u.); with “TGTCCGTCTCCGACCTGCCCATGCTGTCGTGCCACTACATCGGAGTCACCTAGTGCAG”, 9660 fluorescence intensity (a.u.). The result for “CCACTCCAGCGCCTCACCGTACACTCCACCGTAGCTCGGTCGGAGTCACCTAGTGCAG” reads 11600 fluorescence intensity (a.u.). As to “TTAATTCTGTATTTATGGCATGATCATGTTATCTCCTTAACGGAGTCACCTAGTGCAG”, the binding signal was 8910 fluorescence intensity (a.u.). With “GATAATGGCTACCGTGCTGGATTCATGTCACCCACTTCTCCGGAGTCACCTAGTGCAG” the figure was 10000 fluorescence intensity (a.u.); with “AGTCATTATGCCATGTCTATATATTTTTGTTTGTTTTTTCCGGAGTCACCTAGTGCAG”, 10100 fluorescence intensity (a.u.); with “CTCACACTCTGATCATCCATCCGCGGGTGGGTTGACCTCTCGGAGTCACCTAGTGCAG”, 9350 fluorescence intensity (a.u.). The result for “TCGTAAAGTTTTGATTGCTCTTTTTTTCTTTAACTAATCACGGAGTCACCTAGTGCAG” reads 8180 fluorescence intensity (a.u.); that for “TCCGTCACTCGCTCGCCGCGCTATATAAACCCCACATCCTCGGAGTCACCTAGTGCAG”, 9940 fluorescence intensity (a.u.); that for “TGGGCTTCATCTTGTCTTGTTGTTGCTAGTACTTTCTAGACGGAGTCACCTAGTGCAG”, 9690 fluorescence intensity (a.u.). The result for “GAGGTTGTTTTGTCGTCTAGCAAGTGTGTGTCGGGTGGCGCGGAGTCACCTAGTGCAG” reads 9220 fluorescence intensity (a.u.). On to “CCATCCTTTTCCAAGATTATTATAGCTACAGGTTCTCAGACGGAGTCACCTAGTGCAG”, for which the binding signal is 8420 fluorescence intensity (a.u.). Take “TGGGATGGAGGGAGTAGTACAAATTTAAAATATTCAAAATCGGAGTCACCTAGTGCAG”: the binding signal is 9940 fluorescence intensity (a.u.).

For “GGTGTTGTCAGGGTGAGGGGAGTCAGATGCGCGCGGAATGCGGAGTCACCTAGTGCAG”, the binding signal was 8620 fluorescence intensity (a.u.). Consider “TGGATCTTCTTGTTCTGCTGAAGCAGCCGCCTCTCGTCGTCGGAGTCACCTAGTGCAG”, for which the binding signal was 8560 fluorescence intensity (a.u.).

For “ATTCTTGGCCCTGTTCCTATGGGCTTTGGTGGGCTTTAAACGGAGTCACCTAGTGCAG”, the binding signal was 11700 fluorescence intensity (a.u.). With “TGGTTTGAGTTGTCGTGTTTCCTCTCGGCGGCGCGGGGCACGGAGTCACCTAGTGCAG” the figure was 10500 fluorescence intensity (a.u.).

Regarding “ACAATTGTATTCCTGCCAGAATCCTCTGTTTTTTCATTCCCGGAGTCACCTAGTGCAG”, the binding signal is 9260 fluorescence intensity (a.u.).

In the case of “CCGGGTGCGATCGCTCATCACGGCCTCTGTTTCCGCGCTCCGGAGTCACCTAGTGCAG”, the binding signal was 9560 fluorescence intensity (a.u.).

As for “TGCATACTAACTCTTTACCAGAATACTTGTCATTCTAAATCGGAGTCACCTAGTGCAG”, the binding signal is 8480 fluorescence intensity (a.u.).

Regarding “CCACACACGCACCGCCCTCTCTACCCGCACCACCGTAGCACGGAGTCACCTAGTGCAG”, the binding signal was 9540 fluorescence intensity (a.u.). “ATGGTTTGATATTTTGATCAGGCTTTATCTCTCGGTTCACCGGAGTCACCTAGTGCAG”: the binding signal is 8130 fluorescence intensity (a.u.). With “GTCACTACCCTTTTGTAACTGTAAGTCGTGTTAATTAAGCCGGAGTCACCTAGTGCAG” the figure was 9900 fluorescence intensity (a.u.); with “ACGGAAACCCTAACCCTATGCGTCTCGCTTTCCCAGCCGACGGAGTCACCTAGTGCAG”, 10500 fluorescence intensity (a.u.).

Turning to “TTAGTCGCAATCTATACAATTAGTTATTTTTTAAGCATATCGGAGTCACCTAGTGCAG”, the binding signal is 8390 fluorescence intensity (a.u.). Take “TACATCCTTAGTTCCTTGACCACCAGCACATAAACACAAACGGAGTCACCTAGTGCAG”: the binding signal is 9010 fluorescence intensity (a.u.).

As for “ACCAGCCACGTTGCCCAAATCGCTCCTGACCAGACACAAGCGGAGTCACCTAGTGCAG”, the binding signal is 8340 fluorescence intensity (a.u.). On to “AGAACAGTTTTTAATCTGACATGTGCCTGTAGTTTGTTGTCGGAGTCACCTAGTGCAG”, for which the binding signal was 10600 fluorescence intensity (a.u.). With “TTTTTTACCATGGGTCTTGCATTGAATTTTTCTTTTTTTTCGGAGTCACCTAGTGCAG” the figure was 9890 fluorescence intensity (a.u.). With “CATACCGTCCTCCGCGATTTAACCATCTCCATCTCCACCGCGGAGTCACCTAGTGCAG” the figure was 8120 fluorescence intensity (a.u.). As to “TCGTCCCATCTCCACCCTTTCCTCAGGCAGGCGCACATCTCGGAGTCACCTAGTGCAG”, the binding signal was 8840 fluorescence intensity (a.u.). The result for “ATGACTTCCCTCTGCTCTGTTATTTTCATGTTCTTTGATACGGAGTCACCTAGTGCAG” reads 8640 fluorescence intensity (a.u.). With “AACCGTGTGCAGCATTGTTTTTACTCTCTTCTACCATTTGCGGAGTCACCTAGTGCAG” the figure was 8440 fluorescence intensity (a.u.); with “TTTTTGCTGCTGACTTATATTAATATTGGTACGCGTCGTCCGGAGTCACCTAGTGCAG”, 8300 fluorescence intensity (a.u.); with “GAATGATCGCTAGAGTAAGAGCGCCCAACCGTTGACTCGGCGGAGTCACCTAGTGCAG”, 8980 fluorescence intensity (a.u.).

In the case of “ACTCGCTCTCTCCATCTCGTCTCGCCCAAGCGCACGCGTTCGGAGTCACCTAGTGCAG”, the binding signal is 8970 fluorescence intensity (a.u.). The result for “GACCACTAGCAGCCTCGTAACGTTTGCCTCATTTCATCAGCGGAGTCACCTAGTGCAG” reads 10500 fluorescence intensity (a.u.). With “GTGTGTGTGCGAGTGAGTGTTTGGGCTGACAAGTGGTATCCGGAGTCACCTAGTGCAG” the figure was 10000 fluorescence intensity (a.u.).

The values above are taken from publication PMC7819943, “Rice protein-binding microarrays: a tool to detect cis-acting elements near promoter regions in rice”.
